## Primary screen of a compound library

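Whole-cell assay for inhibitors of Mycobacterium tuberculosis growth, labelled Cornell in the record; the read-out is not stated. The concentration is filed as 10 mM, unlikely as a test dose, so the dose is not known. The record gives no direction; compounds strong in two other growth screens of this library score well above the rest, so higher reads as stronger inhibition. Of about 53,000 compounds tested this way, about 900 (1.7%) reached 50% or more in at least one test.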

Results are given as percent effect. The controls that fix the scale are not given in the record; negative values are as filed. Compounds were drawn at random from those tested, without regard to their results.

| # | SMILES | Percent Effect |
|---|---|---|
| 1 | `OCCN1CCN(Cc2cnc3c(-c4ccccc4)cnn3c2)CC1` | -16.72 |
| 2 | `CCCOC1CCCN(C(=O)c2[nH]nc(C)c2Br)C1` (stereo unspecified) | 28.45 |
| 3 | `NC(=O)c1ccccc1-n1cc(-c2cccc(C(=O)O)c2)cn1` | 23 |
| 4 | `COc1cccc(CN2CCC3(CC(Nc4ccncn4)C3)C2)c1F` (stereo unspecified) | 25.84 |
| 5 | `CC(C)c1nccc(CN2CCC(c3nc4ccccc4n3C)CC2)n1` | -11.98 |
| 6 | `O=C(O)C(F)(F)F.O=C(O)C(F)(F)F.c1nc(CN2CCC3(CC2)COCCN3CC2CC2)c[nH]1` | 14.15 |
| 7 | `CCC(C)NC(=O)c1ccc(CNC(=O)CC(C)(C)C)cc1` (stereo unspecified) | 12.76 |
| 8 | `CC(C)NC(=O)CC1(Cn2cnnn2)CCCCC1` | 17.33 |
| 9 | `Cc1cccc2cc(CN3CCC(N4CCCC4)CC3)c(=O)[nH]c12` | 10.5 |
| 10 | `Cc1noc(C)c1CN(C)C(=O)NC(C)c1cccs1` (stereo unspecified) | -66 |
| 11 | `[H][C@]12CC[C@]([H])(CN(C(=O)CCn3cc(Cl)cn3)C1)N(CCOC)C2` | -6.696 |
| 12 | `O=C(NCCn1ccnc1)c1cncc(Br)c1` | -7.582 |
| 13 | `O=C(O)C(F)(F)F.O=C(c1cnccn1)N1CCc2ncnc(-c3cccnc3)c2CC1` | 9.939 |
| 14 | `COc1ccccc1CNc1ncc(-c2cc(C)no2)c(C(C)C)n1` | 6.538 |
| 15 | `COc1ccc(C(=O)N2CCOC3(CNCCOC3)C2)c(OC)n1` (stereo unspecified) | 13.9 |
| 16 | `Fc1ccc(CN2CCCC(c3cc4ncccc4[nH]3)C2)cc1` (stereo unspecified) | 23.37 |
| 17 | `CC(CN1CCCC1=O)NC(=O)NCc1ccccc1-n1cccn1` (stereo unspecified) | 11.02 |
| 18 | `Cn1nc(Br)c2c(NCCNc3ncccn3)ncnc21` | 7.21 |
| 19 | `CC(C)CC(C)(CNC(=O)c1cnccn1)NC(=O)c1cnccn1` (stereo unspecified) | 16.63 |
| 20 | `O=C(CC1CCCC1)N1CCCC1c1nc(O)cc(-c2ccccn2)n1` (stereo unspecified) | -5.625 |
| 21 | `CC(C)N1CC2(CCCN(c3ccnc4ccccc34)C2)CCC1=O` (stereo unspecified) | 17.47 |
| 22 | `Cc1cc(C)n(CC2CCCN2CCS(=O)(=O)c2ccccc2)n1` (stereo unspecified) | 15.08 |
| 23 | `CC(c1cccnc1)N(C)Cc1cc(O)c2cc(F)ccc2n1` (stereo unspecified) | 4.676 |
| 24 | `CC(c1nc(C2CC2)no1)N1CCN(Cc2cccc(C#N)c2)CC1` (stereo unspecified) | 9.102 |
| 25 | `Cc1ncc2c(n1)CN(Cc1nnc(Cc3ccccc3)o1)CC2` | 9.206 |
| 26 | `CC(C)CN1CCC(c2nc3ccc(NC(C)C)cn3n2)CC1.O=C(O)C(F)(F)F.O=C(O)C(F)(F)F` | 2.767 |
| 27 | `CN(Cc1ccccc1)C1(C(=O)NC(C)(C)CO)Cc2ccccc2C1` | 27.15 |
| 28 | `O=C(O)C(F)(F)F.[H][C@]12CCN(S(=O)(=O)c3ccccc3)CC[C@@]1([H])S(=O)(=O)CCN2CC(C)C` | 1.404 |
| 29 | `CC(O)c1cn(Cc2ccc(Cl)cc2)nn1` (stereo unspecified) | 24.91 |
| 30 | `Cc1nnsc1C(=O)NCc1cccnc1N1CCCC(O)C1` (stereo unspecified) | 6.486 |
| 31 | `Cc1ccc2cnn(CCC(=O)NCc3c(C)nn(C)c3C)c2c1` | -14.29 |
| 32 | `O=C1CC[C@]2(CC[C@@H](NC(=O)NCc3ccccc3)CC2)N1` | -17.58 |
| 33 | `CC(NCc1ccccc1Cl)c1ccc(OCC(=O)NC2CC2)cc1` (stereo unspecified) | -42.49 |
| 34 | `CCn1cc(-c2c(C)c(C3CCOC(C)(C)C3)nc(N)c2C#N)cn1` (stereo unspecified) | -18.95 |
| 35 | `CN(C)C(=O)C1CCN(C2CCN(CC3CCC3)CC2)CC1.O=C(O)C(F)(F)F.O=C(O)C(F)(F)F` | 22.53 |
| 36 | `Cc1cccc(=O)n1CCC(=O)N1CCC2(CC1)OCCCC2O` (stereo unspecified) | -29.98 |
| 37 | `CC(C)Cn1cncc1CNC1CCCNC1` (stereo unspecified) | 32.68 |
| 38 | `COc1ccccc1OCC(=O)NCC(C)(O)c1ccccc1` (stereo unspecified) | 11.19 |
| 39 | `CC1CN(C)c2ccccc2CN1C(=O)c1cc[nH]c(=O)c1` (stereo unspecified) | 3.2 |
| 40 | `CN1CCc2nc(C3CCCN(S(=O)(=O)c4ccccc4)C3)ncc2C1` (stereo unspecified) | 17.37 |
| 41 | `Cc1ccccc1-c1cc(CC2(C(=O)O)CCOCC2)on1` | 2.593 |
| 42 | `Cn1cnnc1S(=O)(=O)C1CCN(C(=O)c2cccs2)CC1` | 7.055 |
| 43 | `CCCc1n[nH]c(C2CN(C(=O)c3cccc4cn[nH]c34)CCO2)n1` (stereo unspecified) | -22.81 |
| 44 | `O=C(CCn1cncn1)NC1(c2cccc(Br)c2)CCC1` | -13.67 |
| 45 | `Nc1nc(NCCc2[nH]nc3c2CCCC3)cc(N2CCOCC2)n1` | 29.25 |
| 46 | `O=C(NC[C@H]1OC[C@@H](NC2CCC(F)(F)CC2)[C@@H]1O)C1CC1` | 15.79 |
| 47 | `CSc1nc(C)cc(N2CCC(c3ncc[nH]3)CC2)n1` | 4.445 |
| 48 | `COc1ncccc1NC(=O)C1CCS(=O)(=O)C1` (stereo unspecified) | 8.779 |
| 49 | `CC(C)(C)NC(=O)CNC(=O)Nc1cc(-c2ccccc2)ns1` | 38.08 |
| 50 | `Cc1cnn(CCNCc2cc(=O)n3cc(Cl)ccc3n2)c1` | -11.12 |
| 51 | `Cc1cccc(CNC[C@H]2Cn3ccnc3CO2)n1` | 19.03 |
| 52 | `COCCNC(=O)N1CCN(c2cc(F)ccc2F)CC1` | -0.342 |
| 53 | `CN(C)c1ncccc1NC(=O)C1CN(Cc2ccccc2)CCO1` (stereo unspecified) | 10.93 |
| 54 | `CCc1nc(C(=O)N2CCCCC2)nn1-c1ccccc1Cl` | -24.7 |
| 55 | `O=C1CNc2ncnc(N3CCN(Cc4ccccc4)CC3)c2N1` | -25.68 |
| 56 | `CC(C)c1n[nH]c(C(=O)Nc2cc[nH]n2)c1Br` | -0.8774 |
| 57 | `COCCO[C@H]1CCN(C(=O)c2cccnc2)[C@H]1Cc1cnn(C)c1.O=C(O)C(F)(F)F` | 12.42 |
| 58 | `CSCCN1CCC(NC(=O)c2cccc(C3CCCNC3)c2)CC1` (stereo unspecified) | 3.297 |
| 59 | `CCn1ccnc1-c1nc2cc(S(=O)(=O)N3CCCC3)ccc2n1C` | 1.728 |
| 60 | `O=C(CCC1CCCO1)NS(=O)(=O)c1ccc(Cl)cc1` (stereo unspecified) | -15.76 |
| 61 | `O=C(NC1CC1)C1=CC2(CCN(CC3CC3)CC2)c2ccccc21.O=C(O)C(F)(F)F` | 6.519 |
| 62 | `CC(C)C[C@@H](CO)n1cc(-c2cnc(-c3ccco3)nc2)nn1` | 16.92 |
| 63 | `O=C(c1cccc2ccnn12)N1CCC[C@H]1CN1CCCC1` | -29.27 |
| 64 | `O=C(O)C(F)(F)F.O=C(O)C(F)(F)F.O=C(O)C(F)(F)F.[H][C@@]12CN(Cc3ccncc3)C[C@]1([H])[C@@H](OC)CCN2Cc1cnn(C)c1` | 1.472 |
| 65 | `CCn1cc(S(=O)(=O)NCc2ccnc(-n3ccnc3)c2)cn1` | 6.756 |
| 66 | `CC(C)OCCS(=O)(=O)NC1CCN(C2CCCC2)C1` (stereo unspecified) | -66.33 |
| 67 | `CCC(=O)Nc1cc(Cl)ccc1C(=O)N(C)Cc1noc(CC)n1` | -36.66 |
| 68 | `Cc1cc2ccccc2n1CCC(=O)N1CCC2(CC1)CNC(=O)C2` | -9.599 |
| 69 | `O=C(c1cc(=O)[nH][nH]1)N1CCCC2(CCC(=O)N(C3CCCC3)C2)C1` (stereo unspecified) | 2.532 |
| 70 | `COC(=O)NCC(=O)N(C)Cc1csc(-c2cccs2)n1` | 9.12 |
| 71 | `[H][C@@]12CCN(S(C)(=O)=O)[C@]1([H])CC[C@@H](c1nc(C)no1)O2` | 12.89 |
| 72 | `[H][C@@]12CCN(c3cccc(C)n3)C[C@]1([H])[C@@H](CN(C)Cc1ccco1)OC2` | 15.92 |
| 73 | `Cn1nccc1CNC(=O)CCn1nc(C(F)(F)F)c(Cl)c1C1CC1` | 22.9 |
| 74 | `COc1ccccc1OCCNc1snc(Cl)c1C#N` | 38.53 |
| 75 | `C=C(C)COc1ccc(C(=O)N(C)C(C)c2ccon2)cc1` (stereo unspecified) | 17.97 |
| 76 | `Cc1noc(CCCC(=O)N2CCCCC2c2nccs2)n1` (stereo unspecified) | -24.93 |
| 77 | `Cc1cccc(CS(=O)(=O)NCc2nn(C)c3c2CCCC3)c1` | 18.68 |
| 78 | `CCN(CC)c1ccc(NS(=O)(=O)c2cccnc2)cn1` | 24.54 |
| 79 | `Cc1cncc(CN2CC[C@@](O)(CNC(=O)c3c[nH]cn3)[C@H](O)C2)c1` | 15.81 |
| 80 | `CSCCC(O)C(=O)N(C)Cc1cnn(-c2ccc(F)cc2)c1` (stereo unspecified) | -2.8 |
| 81 | `Cc1ncc2c(n1)CN(Cc1noc(C3CC3)n1)CC2` | -32.22 |
| 82 | `Cc1cnc(CN(C)C2CCN(CCCc3ccccc3)C2)o1` (stereo unspecified) | -12.99 |
| 83 | `CSCC(C)(O)CNC(=O)c1ccc(F)cc1Cl` (stereo unspecified) | -22.17 |
| 84 | `COCCN1CCC(CNc2cnc3ccccc3n2)CC1` | 27.18 |
| 85 | `Cc1nc(CN2CCOCC2c2[nH]ncc2C)cs1` (stereo unspecified) | 21.22 |
| 86 | `COCCNC(=O)C1CCCN(c2ccc3nncn3n2)C1` (stereo unspecified) | 4.91 |
| 87 | `Cc1nc(C)n(CC2CN(Cc3cccc(OC(C)C)c3)CCO2)n1` (stereo unspecified) | 9.085 |
| 88 | `CCOc1cc2c(cc1CCC(=O)O)CCC2` | 26.53 |
| 89 | `CC(NCCCN1CCCC1=O)c1cc(Br)ccc1F` (stereo unspecified) | 37.45 |
| 90 | `Cc1cccc(CS(=O)(=O)CC(=O)N(C)Cc2ccccc2F)c1` | 40.11 |
| 91 | `COc1ccc(CC(=O)N2CCCC(n3cc(C)cn3)C2)c(OC)c1` (stereo unspecified) | 3.009 |
| 92 | `CCC(CC)c1cc(CNC(=O)N2CCCC(N(C)C)C2)on1` (stereo unspecified) | 0.4291 |
| 93 | `Cc1n[nH]c(C)c1NC(=O)CN1CCCC1c1noc(C2CC2)n1` (stereo unspecified) | -22.02 |
| 94 | `OC1(CN2CCC(Cc3ccccc3)CC2)CCC1` | 44.67 |
| 95 | `Cc1cnccc1-c1cnn(CCNC(=O)C(C)(C)C)c1C1CC1.Cl` | 7.337 |
| 96 | `CCc1cnc(CN(C)C2CCN(CC3CCOCC3)C2)o1` (stereo unspecified) | 8.332 |
| 97 | `Cc1cc(F)ccc1NS(=O)(=O)c1cc2c(c(C(=O)O)c1)OCCO2` | -19.06 |
| 98 | `O=C(O)C(F)(F)F.[H][C@@]12C[C@@H](C(=O)NC3CCC3)C[C@@]1([H])N(CC1CC1)CCO2` | 3.345 |
| 99 | `Cc1nc(NCCc2ccc(Cl)cc2)cc(C(=O)N2CCOCC2)n1` | 8.87 |
| 100 | `CCCn1nnnc1CSc1nccn1Cc1ccccn1` | -1.319 |
| 101 | `Cc1csc(CN(C)S(=O)(=O)c2ccc(C)c(N(C)C)c2)n1` | -6.14 |
| 102 | `O=C(Cc1cccc(F)c1F)N1CCOC(c2cccc(O)c2)C1` (stereo unspecified) | 28.41 |
| 103 | `CCOC(=O)N1CCN(C(=O)C2Cc3ccccc3CN2C)CC1` (stereo unspecified) | -25.01 |
| 104 | `Cc1ccc(C)c(CS(=O)(=O)Cc2ccn(C)c(=O)c2)c1` | -0.2366 |

8 of the entries, repeated:

SMILES,Percent Effect
CSCC(C)(O)CNC(=O)c1ccc(F)cc1Cl (stereo unspecified),-22.17
CC(C)c1n[nH]c(C(=O)Nc2cc[nH]n2)c1Br,-0.8774
O=C1CC[C@]2(CC[C@@H](NC(=O)NCc3ccccc3)CC2)N1,-17.58
CN(C)c1ncccc1NC(=O)C1CN(Cc2ccccc2)CCO1 (stereo unspecified),10.93
CC(C)c1nccc(CN2CCC(c3nc4ccccc4n3C)CC2)n1,-11.98
Cc1noc(C)c1CN(C)C(=O)NC(C)c1cccs1 (stereo unspecified),-66
CN1CCc2nc(C3CCCN(S(=O)(=O)c4ccccc4)C3)ncc2C1 (stereo unspecified),17.37
Cc1cnccc1-c1cnn(CCNC(=O)C(C)(C)C)c1C1CC1.Cl,7.337

The values are deposited in ChEMBL (CHEMBL3988442, “University of Dundee, Small-Polar-MMV Screening Library” (2021)).